# Experimental data taken from PubChem BioAssay AID504467 (National Center for Advancing Translational Sciences (NCATS), 2011).
# The whole screen tested about 330,000 compounds, of which about 7,700 (2.3%) were called active. The inconclusive results got no clear call from the source; some entries with a clear call stand among them for comparison. Calls come from the whole dose curve; as a rule, active = well fitted inhibition curve with a large enough effect; inconclusive = small, poorly fitted or top-dose-only effect, or effect the other way; inactive = flat fitted curve, though single readings scatter. Where the call is inconclusive, the potency comes from a doubtful curve fit.
# Experiment: qHTS screen for small molecules that inhibit ELG1-dependent DNA repair in human embryonic kidney (HEK293T) cells expressing luciferase-tagged ELG1; note: nearly all actives have a fitted effect of over 55% in size
# Details: HEK293T ELG1-luciferase reporter, luminescence, 16 h, DNA damage induced by 5-fluorouridine; activity change, negative = inhibition: at 46.1 µM (top of the series)
# Summary of the method: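 HEK293T cells expressing luciferase-tagged ELG1 (2,000/well) received 5-Fluorouridine plus compound or DMSO for 16 hr at 37 °C. Luciferase was read by ONE-Glo luminescence after 30 min at room temperature.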
# % is set by controls: 0 for no effect and ±100 for the full control effect; potency is the fitted concentration of half-maximal effect.
SMILES,Potency,"activity change, negative = inhibition"
COc1ccc(-c2oc(=O)c3cc(OC)c(OC)cc3c2/C=C/c2ccc(OC(C)=O)cc2)cc1,"inconclusive: 7.3 µM [inhibitor, partial curve]",–
O=Cc1ccc(-c2ccc(Cl)cc2Cl)[nH]1,"inconclusive: 29.1 µM [activator, partial curve, poor fit]",–
CC(C)(C)NC(=O)C(c1ccc(F)cc1)N(CC1CCCO1)C(=O)c1csnn1 (stereo not drawn),–,inactive: 18%
Cc1cc(NC(=O)CSc2nccn2-c2cccc(C)c2C)no1,"inconclusive: 18.3 µM [inhibitor, single point]",–
Cc1ccccc1Nc1c(-c2ccccn2)nc2c(C)cccn12,"inconclusive: 23.1 µM [inhibitor, single point]",–
CCn1c(N2CCN(C(=O)/C=C/c3ccccc3)CC2)nc2ccccc21,"inconclusive: 18.3 µM [inhibitor, partial curve]",–
COc1cc(CNC(=O)c2ccc(Cn3nc(C)c(Cl)c3C)o2)cc(OC)c1,active: 18.4 µM,–
COc1ccccc1-c1cc(C(=O)N2CCN(S(=O)(=O)c3ccc(C)cc3)CC2)[nH]n1,"inconclusive: 16.4 µM [inhibitor, single point]",–
Cc1ccc(S(=O)(=O)N2CCN(C(=O)COC(=O)c3ccccc3Cl)CC2)c(C)c1,"inconclusive: 25.9 µM [inhibitor, single point]",–
CCN(CC)S(=O)(=O)c1ccc(Oc2ccccc2)c(N)c1,"inconclusive: 23.1 µM [inhibitor, partial curve, poor fit]",–
CC1(C)CC(NC(=O)Cc2ccccc2[N+](=O)[O-])CC(C)(C)N1,"inconclusive: 23.1 µM [activator, partial curve, poor fit]",–
COc1ccc(OC)c(CN2CCC(Cc3ccccc3)CC2)c1,–,inactive: -12.9%
Cn1c(=O)n(C)c2cc(NS(=O)(=O)c3cccs3)ccc21,"inconclusive: 18.3 µM [activator, partial curve]",–
Brc1ccc(Nc2nc(-c3cccnc3)cs2)cc1,"inconclusive: 5.17 µM [activator, partial curve]",–
COc1ccc(S(=O)(=O)N2CCN(c3cc(-c4ccccc4)nc4ncnn34)CC2)cc1,active: 20.6 µM,–
O=C(OCc1ccccc1Cl)c1ccccc1C(=O)c1ccccc1,"inconclusive: 29.1 µM [activator, single point]",–
O=C(O)Cc1ccc(N=Nc2c(O)c(C(=O)O)cc3ccccc23)cc1,"inconclusive: 20.6 µM [activator, partial curve]",–
CCc1sc(C(=O)Nc2nccs2)cc1C,"inconclusive: 2.31 µM [activator, full curve]",–
FC(F)(F)c1cccc(Nc2cc(-c3ccccc3)nc3ncnn23)c1,–,inactive: -5.35%
Sc1oc(-c2ccccc2)cc1C=Nc1ccccc1,"inconclusive: 20.6 µM [activator, partial curve]",–
O=C(NCc1ccco1)c1ccc2c(c1)C(=O)c1ccccc1-2,"inconclusive: 5.8 µM [activator, single point]",–
COC(=O)C1C(=O)NC(SC)=C(C#N)C1c1ccccc1 (stereo not drawn),"inconclusive: 23.1 µM [activator, single point]",–
Cn1c(=O)[nH]c(=O)c2c1nc(N1CCCCCC1)n2CCOc1ccccc1,–,inactive: 16.9%

SMILES,Potency,"activity change, negative = inhibition"
Cc1onc(-c2ccccc2Cl)c1C(=O)Nc1cccc2cccnc12,"inconclusive: 7.31 µM [inhibitor, partial curve]",–
Cc1cnc(CNC(=O)c2ccc3oc(C(C)C)nc3c2)[nH]1,"inconclusive: 14.6 µM [activator, partial curve, poor fit]",–
COc1ccc(CN(Cc2cc3cc4c(cc3[nH]c2=O)OCO4)C(=O)NC2CCCCC2)cc1,active: 16.4 µM,–
Cc1ccc(NC(=O)CCSc2ccccc2)c(C)c1,"inconclusive: 20.6 µM [activator, single point]",–
COc1ccccc1NC(=O)Nc1cccc(C)n1,–,inactive: -2.55%
O=C(COC(=O)c1ccc([N+](=O)[O-])o1)Nc1ccc(N2CCOCC2)cc1,"inconclusive: 1.46 µM [activator, partial curve]",–
O=C(CSc1ncnc2sc3c(c12)CCCC3)c1ccccc1,"inconclusive: 18.4 µM [activator, single point]",–
O=C(CCNC(=O)N1CCn2c1nc1ccccc12)NCc1ccc(F)cc1,–,inactive: 3.8%
Cc1cc(C(=O)NCc2ccc(F)cc2)n(-c2ccccc2)n1,"inconclusive: 16.4 µM [inhibitor, single point]",–
CCn1nnc(NC(=O)c2ccccc2Br)n1,"inconclusive: 16.4 µM [activator, partial curve]",–
O=C(Nc1cccc(F)c1)c1ccc(Cn2cc([N+](=O)[O-])cn2)o1,"inconclusive: 23.1 µM [inhibitor, single point]",–
O=C(Nc1cccnc1)c1ccc(-c2ccccc2)cc1,"inconclusive: 3.66 µM [activator, full curve]",–
COc1cc(OC)cc(-c2cc3nc(C)c(CCC(=O)Nc4nc(C)cs4)c(C)n3n2)c1,"inconclusive: 4.61 µM [inhibitor, full curve]",–
CN(c1cccc(NC(=O)c2ccc(N(C)S(=O)(=O)c3ccccc3)cc2)c1)S(C)(=O)=O,active: 16.4 µM,–
NC(N)=Nc1nc2cc([N+](=O)[O-])ccc2o1,"inconclusive: 14.6 µM [activator, single point]",–
C=CCNC(=O)c1c(Br)cnn1-c1ccc(C)cc1,"inconclusive: 18.3 µM [activator, partial curve]",–
Cc1ccccc1NC(=O)c1ccc(CN(c2ccccc2)S(=O)(=O)c2ccccc2)cc1,"inconclusive: 25.9 µM [inhibitor, partial curve, poor fit]",–
O=C(Nc1c[nH]c(=O)[nH]c1=O)c1cc([N+](=O)[O-])cc([N+](=O)[O-])c1,–,inactive: 13.6%
O=C1C2CCCN2C(=O)N1CCCCN1CCN(c2cccc(C(F)(F)F)c2)CC1 (stereo not drawn),"inconclusive: 14.1 µM [inhibitor, partial curve, poor fit]",–
CC(C)Oc1ccc(CCc2n[nH]c(=S)n2-c2ccccc2)cc1,"inconclusive: 29.1 µM [inhibitor, single point]",–
COc1cc(C(=O)Nc2ccc(Nc3ccccc3)cc2)cc(OC)c1OC,"inconclusive: 35.5 µM [inhibitor, single point]",–
COc1cccc(CNC(=O)c2ccccc2NC(=O)C2=C(C)OCCS2)c1OC,active: 11.6 µM,–
COC(=O)Cc1[nH]n(-c2ccccc2)c(=O)c1C(C)=Nc1ccccc1,"inconclusive: 20.6 µM [activator, single point]",–

# A different layout for part of the listing above:
SMILES | Potency | activity change, negative = inhibition
Cc1ccccc1NC(=O)c1ccc(CN(c2ccccc2)S(=O)(=O)c2ccccc2)cc1 | inconclusive: 25.9 µM [inhibitor, partial curve, poor fit] | –
O=C(Nc1c[nH]c(=O)[nH]c1=O)c1cc([N+](=O)[O-])cc([N+](=O)[O-])c1 | – | inactive: 13.6%
O=C1C2CCCN2C(=O)N1CCCCN1CCN(c2cccc(C(F)(F)F)c2)CC1 (stereo not drawn) | inconclusive: 14.1 µM [inhibitor, partial curve, poor fit] | –

# (continued)

SMILES,Potency,"activity change, negative = inhibition"
CCc1c(C(=O)OCc2ccccc2)[nH]c(C)c1C,"inconclusive: 11.6 µM [activator, partial curve]",–
COc1cc(CNCc2ccccc2)c(Br)cc1OC1CCCC1,"inconclusive: 25.9 µM [inhibitor, single point]",–
O=C(Nc1ccc(NC(=O)C2CC2)nc1)c1ccccc1F,"inconclusive: 14.6 µM [activator, partial curve]",–
COc1ccc([C@H]2CC(=O)C=C(c3cccc4c3sc3ccccc34)C2)cc1OC,active: 8.2 µM,–
C=CCn1c(SCc2ccc(Cl)cc2)nc2cc(C(=O)N3CCC(C(N)=O)CC3)ccc2c1=O,active: 8.2 µM,–
CC1(C)Cc2c(c(N3CCCC3)nc3sc(C(=O)Nc4ccccc4)c(N)c23)CO1,"inconclusive: 18.3 µM [activator, partial curve]",–
COCCNc1ccc([N+](=O)[O-])cc1C(=O)Nc1cccc(C)n1,"inconclusive: 23.1 µM [inhibitor, partial curve]",–
N#Cc1ccccc1OCC(=O)NNC(=O)CNC(=O)c1ccc(Br)o1,–,inactive: 6.12%
CC(=O)N1CCc2c(sc(NC(=O)CS(=O)(=O)c3ccc(F)cc3)c2C#N)C1,–,inactive: 8.64%
O=C(COC(=O)c1ccc(Cl)c([N+](=O)[O-])c1)Nc1ccccc1OC(F)F,–,inactive: 23.4%
COc1ccccc1NC(=O)c1ccc(-c2ccccc2F)o1,"inconclusive: 5.17 µM [activator, single point]",–
CCC(OC(=O)c1cc2sccc2n1C)C(=O)NCC1CCCO1 (stereo not drawn),"inconclusive: 29.1 µM [inhibitor, single point]",–
COc1cc(CCCN2C(=S)NC[C@@H]2c2ccccc2)cc(OC)c1OC,–,inactive: -0.242%
COc1ccccc1C(=O)NNC1=NS(=O)(=O)c2ccccc21,"inconclusive: 25.1 µM [activator, single point]",–
CC1CC(C)CN(S(=O)(=O)c2ccc(NN)nc2)C1 (stereo not drawn),"inconclusive: 14.6 µM [inhibitor, single point]",–
COc1ccccc1NC(=O)c1cnc(SCC(=O)NCC2CCCO2)n(C)c1=O (stereo not drawn),–,inactive: -13%
COc1ccc(-c2cn3cc(C)ccc3n2)cc1OC,"inconclusive: 2.31 µM [activator, full curve]",–
O=C(COC(=O)c1ccccc1O)Nc1cc(S(=O)(=O)N2CCCCCC2)ccc1Cl,"inconclusive: 35.5 µM [inhibitor, single point]",–
COc1ccc(/C=N/NC(=O)c2c(-c3ccccc3)noc2C)cc1,–,inactive: 1.16%
Cc1onc(-c2ccccc2)c1C(=O)OCc1nnc(-c2ccc([N+](=O)[O-])cc2)o1,"inconclusive: 29.1 µM [inhibitor, single point]",–
Cc1ccc2[nH]c3c(c2c1)CN(C(=O)CN1CCN(Cc2ccc4c(c2)OCO4)CC1)CC3,"inconclusive: 11.2 µM [inhibitor, partial curve]",–
CC1CCCCC1NC(=O)CSc1nnc(N)s1 (stereo not drawn),"inconclusive: 16.4 µM [activator, single point]",–
